Consider one substance from publication PMC3615292.

By UniProt entry, the sequences of proteins in these tests, tags left out. Residues count along the entry.
UniProt P05019, residues 49-118: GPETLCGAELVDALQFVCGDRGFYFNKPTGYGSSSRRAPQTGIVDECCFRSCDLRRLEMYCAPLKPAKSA
UniProt P17936, residues 28-291: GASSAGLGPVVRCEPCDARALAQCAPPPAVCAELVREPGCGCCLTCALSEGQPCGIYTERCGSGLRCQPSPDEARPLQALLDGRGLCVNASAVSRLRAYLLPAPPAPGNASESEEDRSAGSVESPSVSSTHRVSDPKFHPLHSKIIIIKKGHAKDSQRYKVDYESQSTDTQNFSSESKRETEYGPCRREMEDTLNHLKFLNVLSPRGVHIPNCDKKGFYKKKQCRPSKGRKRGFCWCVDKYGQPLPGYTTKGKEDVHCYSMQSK

The assay deals with insulin-like growth factor 1 (IGF-1) (UniProt P05019). The assay is described as follows: ELISA; 96-well plate coated overnight with 50 nM T-IGF1 or 50 nM intact IGF-1; 50, 100 or 200 ng IGFBP3 in 100 uL 50 mM Tris-HCl pH 6.8 with 0.5% BSA, 22°C, 2 h; detected with anti-IGFBP3 antibody; relative binding as percent of control; both purified. On the technique in general: An ELISA detects its analyte on a solid surface through an enzyme-linked reagent.

Results are given in words; binding and its absence hold for the method and conditions named. Some entries that bind do so weakly or less than the wild type.

“IGF-binding protein 3 (IGFBP3) (from UniProt P17936 28-291)”: the binding entry is “binds”.
